# Some of the results follow. Most entries show no effect beyond the scatter of the controls.
# Chains of the proteins cited; added tags and fusions are not shown. Lines headed by an entry give the natural chain unless they say otherwise; changes in a name come on top.
# UniProt P99028: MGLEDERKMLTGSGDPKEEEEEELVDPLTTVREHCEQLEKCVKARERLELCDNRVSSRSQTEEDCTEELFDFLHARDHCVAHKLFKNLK
# UniProt P97496, whole entry: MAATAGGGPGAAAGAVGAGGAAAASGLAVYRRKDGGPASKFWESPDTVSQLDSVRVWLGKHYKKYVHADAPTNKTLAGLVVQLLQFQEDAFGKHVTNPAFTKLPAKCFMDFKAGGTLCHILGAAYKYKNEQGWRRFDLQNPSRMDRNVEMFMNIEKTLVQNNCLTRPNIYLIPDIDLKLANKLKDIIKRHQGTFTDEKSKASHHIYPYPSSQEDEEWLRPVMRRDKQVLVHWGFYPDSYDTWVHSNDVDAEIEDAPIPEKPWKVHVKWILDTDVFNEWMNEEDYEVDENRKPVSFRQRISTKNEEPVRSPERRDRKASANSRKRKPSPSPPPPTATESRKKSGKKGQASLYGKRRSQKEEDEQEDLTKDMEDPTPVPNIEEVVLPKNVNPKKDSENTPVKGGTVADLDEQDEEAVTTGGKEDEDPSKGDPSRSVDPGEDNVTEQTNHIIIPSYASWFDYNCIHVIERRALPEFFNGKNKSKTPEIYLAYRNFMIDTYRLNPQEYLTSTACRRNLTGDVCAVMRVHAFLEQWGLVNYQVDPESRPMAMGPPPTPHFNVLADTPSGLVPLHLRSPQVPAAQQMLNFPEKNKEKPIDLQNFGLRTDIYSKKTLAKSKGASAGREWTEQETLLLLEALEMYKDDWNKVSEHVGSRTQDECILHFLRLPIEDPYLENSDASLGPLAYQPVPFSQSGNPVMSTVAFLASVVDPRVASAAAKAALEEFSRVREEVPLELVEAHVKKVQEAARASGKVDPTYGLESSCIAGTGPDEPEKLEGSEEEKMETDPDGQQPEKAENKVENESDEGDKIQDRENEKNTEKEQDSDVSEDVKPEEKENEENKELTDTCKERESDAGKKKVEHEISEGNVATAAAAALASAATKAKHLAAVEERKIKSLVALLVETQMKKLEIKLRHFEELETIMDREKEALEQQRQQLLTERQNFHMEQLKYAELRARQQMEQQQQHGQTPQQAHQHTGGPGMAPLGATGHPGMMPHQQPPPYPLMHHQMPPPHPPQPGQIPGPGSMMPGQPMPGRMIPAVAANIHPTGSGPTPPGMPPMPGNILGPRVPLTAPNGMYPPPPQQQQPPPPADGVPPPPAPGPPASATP
# UniProt P97868: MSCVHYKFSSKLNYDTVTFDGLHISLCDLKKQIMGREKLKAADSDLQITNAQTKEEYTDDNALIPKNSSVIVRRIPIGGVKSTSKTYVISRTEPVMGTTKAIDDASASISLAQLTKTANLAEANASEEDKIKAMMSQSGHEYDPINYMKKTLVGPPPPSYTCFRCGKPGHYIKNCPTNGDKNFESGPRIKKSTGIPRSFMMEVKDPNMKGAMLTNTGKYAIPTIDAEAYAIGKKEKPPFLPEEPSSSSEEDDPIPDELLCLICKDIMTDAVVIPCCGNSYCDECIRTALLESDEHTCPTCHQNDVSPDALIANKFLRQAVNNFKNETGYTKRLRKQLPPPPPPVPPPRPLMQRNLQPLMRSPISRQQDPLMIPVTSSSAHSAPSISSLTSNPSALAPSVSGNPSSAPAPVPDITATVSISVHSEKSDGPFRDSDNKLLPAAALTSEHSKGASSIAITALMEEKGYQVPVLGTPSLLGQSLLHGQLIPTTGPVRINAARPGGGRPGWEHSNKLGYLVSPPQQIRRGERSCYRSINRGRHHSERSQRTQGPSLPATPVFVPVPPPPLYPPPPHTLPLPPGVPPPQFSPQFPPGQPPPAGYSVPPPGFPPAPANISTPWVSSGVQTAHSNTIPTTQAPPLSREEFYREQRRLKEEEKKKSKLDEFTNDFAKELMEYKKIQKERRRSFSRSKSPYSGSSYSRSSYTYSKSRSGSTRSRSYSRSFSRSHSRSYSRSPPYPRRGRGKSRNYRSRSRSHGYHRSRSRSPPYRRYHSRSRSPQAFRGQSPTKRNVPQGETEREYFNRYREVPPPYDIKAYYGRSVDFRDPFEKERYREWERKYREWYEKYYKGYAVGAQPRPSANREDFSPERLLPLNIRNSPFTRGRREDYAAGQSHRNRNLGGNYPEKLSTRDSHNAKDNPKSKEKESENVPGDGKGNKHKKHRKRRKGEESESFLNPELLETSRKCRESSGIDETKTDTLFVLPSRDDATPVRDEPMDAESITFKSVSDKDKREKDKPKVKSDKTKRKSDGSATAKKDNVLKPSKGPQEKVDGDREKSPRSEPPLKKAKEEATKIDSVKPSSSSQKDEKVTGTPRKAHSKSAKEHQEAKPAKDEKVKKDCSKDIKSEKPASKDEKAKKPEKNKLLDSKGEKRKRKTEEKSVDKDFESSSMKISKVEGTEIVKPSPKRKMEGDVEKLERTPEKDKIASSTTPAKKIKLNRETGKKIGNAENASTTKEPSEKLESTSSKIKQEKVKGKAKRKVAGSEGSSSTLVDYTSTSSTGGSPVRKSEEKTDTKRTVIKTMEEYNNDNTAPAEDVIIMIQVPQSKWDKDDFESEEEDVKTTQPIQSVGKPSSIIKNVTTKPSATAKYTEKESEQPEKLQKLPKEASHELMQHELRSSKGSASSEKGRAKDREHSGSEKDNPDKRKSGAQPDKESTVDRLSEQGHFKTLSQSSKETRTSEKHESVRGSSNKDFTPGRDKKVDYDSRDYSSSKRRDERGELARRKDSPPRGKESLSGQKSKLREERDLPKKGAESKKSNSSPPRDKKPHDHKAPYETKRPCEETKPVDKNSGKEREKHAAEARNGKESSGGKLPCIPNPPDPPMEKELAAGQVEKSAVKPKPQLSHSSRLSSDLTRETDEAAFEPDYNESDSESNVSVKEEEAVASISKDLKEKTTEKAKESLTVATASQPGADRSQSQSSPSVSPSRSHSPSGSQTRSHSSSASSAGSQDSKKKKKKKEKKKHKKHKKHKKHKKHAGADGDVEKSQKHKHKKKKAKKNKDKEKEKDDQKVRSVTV
# UniProt P97930: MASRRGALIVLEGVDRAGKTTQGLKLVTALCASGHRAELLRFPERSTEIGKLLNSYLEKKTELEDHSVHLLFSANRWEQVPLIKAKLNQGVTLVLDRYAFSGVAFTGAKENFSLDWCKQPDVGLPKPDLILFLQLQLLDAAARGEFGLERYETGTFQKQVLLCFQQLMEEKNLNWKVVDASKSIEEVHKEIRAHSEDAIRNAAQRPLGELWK
# Compound: CN[C@@H]1C[C@H]2O[C@@](C)([C@@H]1OC)n1c3ccccc3c3c4c(c5c6ccccc6n2c5c31)C(=O)NC4 [staurosporine]
# Experiment: log2 fold change of tryptic peptide abundance, ligand vs vehicle (limited proteolysis) (log2 ratio); higher = more trypsin-susceptible (destabilized)
# Details: ligand concentration: 20 uM; sample: mouse liver crude lysate; replicate design: treated separately
row,Target,log2 fold change
1,"UniProt P99028 (peptide sequence: EHCEQLEK, peptide start residue: 33)",-0.117
2,"UniProt P97496 (peptide sequence: LRHFEELETIMDR, peptide start residue: 903)",0.447
3,"UniProt P70326 (peptide sequence: RMFPSYKVK, peptide start residue: 100)",0.155
4,"UniProt P97868 (peptide sequence: DPFEKER, peptide start residue: 821)",-0.282
5,"UniProt P97930 (peptide sequence: YETGTFQK, peptide start residue: 151)",0.213
